Reference: PubChem BioAssay AID248 (DTP/NCI, 2004)
The list shows only some results of the screen, not a fair sample: it gathers tests that were run many times, whatever their T/C, doses with no T/C, and many T/C values between a quarter and a half above the control. Other doses and runs of a compound stand elsewhere. T/C: endpoint of the treated group in % of that of the vehicle group. Some entries give survivors of the animals treated and no T/C: the source holds a T/C of zero for them, seemingly a mark for toxic or unscored doses. Some survivor counts are full or nearly so, which does not show that the dose was tolerated: survival well below the control is almost never listed, so the zero probably covers shortened survival too. Survivors were counted at the toxicity check, usually on the fifth day, unless a day is given; later deaths do not show. Schedules are NCI's codes, taken here to give the interval after Q, in days (D) or hours (H), and the number of doses after X. Where survival is the endpoint, this PubChem deposit counts one and a half times the control or more as active, and values a quarter to a half above the control carry no call in these data; other NCI protocols may use other cut-offs.

Test system: L1210 leukemia ip in BDF1 mice, survival T/C
Experiment: NCI In Vivo Anticancer Drug Screen. Data for tumor model L1210 Leukemia (intraperitoneal) in B6D2F1 (BDF1) mice
Conditions: T/C endpoint: mean survival time, higher T/C = longer survival
[1] = dose: 100.0 mg/kg/injection, schedule: Q01DX001 (ip), vehicle: saline
[2] = dose: 200.0 mg/kg/injection, schedule: Q01DX001 (ip), vehicle: saline
[3] = dose: 400.0 mg/kg/injection, schedule: Q01DX001 (ip), vehicle: saline
[4] = dose: 100.0 mg/kg/injection, schedule: Q04DX002 (ip), vehicle: saline with Tween-80
[5] = dose: 66.0 mg/kg/injection, schedule: Q01DX009 (ip), vehicle: saline

What does the source list for `CC(=O)NC1=C(Nc2ccc(-c3ccc(NC4=C(NC(C)=O)C(=O)c5ccccc5C4=O)cc3)cc2)C(=O)c2ccccc2C1=O`?
survivor count (dose: 18.0 mg/kg/injection, schedule: Q01DX009 (ip), vehicle: saline): 0 of 6; survivor count (dose: 25.0 mg/kg/injection, schedule: Q01DX001 (ip), vehicle: saline): 1 of 6; survivor count (dose: 28.0 mg/kg/injection, schedule: Q04DX003 (ip), vehicle: saline): 0 of 6; survivor count (dose: 42.0 mg/kg/injection, schedule: Q04DX003 (ip), vehicle: saline): 0 of 6; survivor count (dose: 50.0 mg/kg/injection, schedule: Q01DX001 (ip), vehicle: saline): 0 of 6; survivor count [1]: 0 of 6; survivor count [2]: 0 of 6; survivor count [3]: 0 of 6

`C=C(Br)CNC(N)=S` was tested. Which survivor count (dose: 400.0 mg/kg/injection, schedule: Q04DX003 (ip), vehicle: Klucel (hydroxypropylcellulose) (HPC)) did it give?
The survivor count was 4 of 6.

For `CC(=O)N(C(=O)c1ccccc1)c1ccc(NS(=O)(=O)c2ccc(C)cc2)cc1`, which survivor count (dose: 200.0 mg/kg/injection, schedule: Q04DX003 (ip), vehicle: Klucel (hydroxypropylcellulose) (HPC)) is on record?
The survivor count was 6 of 6.

With `CCCCC(CN)c1cccc2ccccc12` (stereo not drawn) as the molecule, how does the survivor count [4] read?
Its survivor count is 1 of 3.

`OB(O)c1ccccc1` was tested. Which survivor count (dose: 400.0 mg/kg/injection, schedule: Q01DX009 (ip), vehicle: gum acacia) did it give?
Its survivor count is 0 of 6.

With `NC(COC(c1ccccc1)(c1ccccc1)c1ccccc1)C(=O)O` (stereo not drawn) as the molecule, how does the T/C (dose: 50.0 mg/kg/injection, schedule: Q01DX009 (ip), vehicle: other) read?
The T/C was 127 % of control.

What about the T/C (dose: 100.0 mg/kg/injection, schedule: Q01DX009 (ip), vehicle: other) of the same molecule?
Its T/C is 142 % of control.

What about the survivor count (dose: 400.0 mg/kg/injection, schedule: Q01DX009 (ip), vehicle: other) of the same molecule?
Its survivor count is 0 of 6.

How did the survivor count (dose: 400.0 mg/kg/injection, schedule: Q04DX003 (ip), vehicle: acetone) turn out when `CC1(C)OC2OC(/C=C\C=O)C3OC(C)(C)OC3C2O1` (stereo not drawn) was run?
Its survivor count is 5 of 6.

`CN=C(Nc1ccc(N(C)C)cc1)SC` was tested. Which survivor count (dose: 300.0 mg/kg/injection, schedule: Q01DX001 (ip), vehicle: other) did it give?
Its survivor count is 0 of 6.

`CC1(C)CC2CCC1(Cl)CC2Cl` (stereo not drawn) was tested. Which survivor count (dose: 200.0 mg/kg/injection, schedule: Q01DX009 (ip), vehicle: saline + alcohol) did it give?
Its survivor count is 0 of 3.

With `CCOc1ccccc1/C=C1\C=Nc2ccccc21` as the molecule, how does the survivor count (dose: 400.0 mg/kg/injection, schedule: Q04DX002 (ip), vehicle: carboxymethylcellulose (CMC)) read?
Its survivor count is 3 of 3.

Which survivor count (dose: 400.0 mg/kg/injection, schedule: Q01DX009 (ip), vehicle: saline) does the source give for `O=C(O)CC(O)C(F)(F)C(F)(F)C(F)(F)F` (stereo not drawn) here?
Its survivor count is 5 of 6.

How did the survivor count (dose: 200.0 mg/kg/injection, schedule: Q01DX005 (ip), vehicle: water) turn out when `O=C1/C(=C/c2ccc([N+](=O)[O-])cc2)SC(=S)N1C1OC(CO)C(O)C(O)C1O` (stereo not drawn) was run?
Its survivor count is 3 of 6.

What about the survivor count (dose: 400.0 mg/kg/injection, schedule: Q01DX005 (ip), vehicle: water) of the same molecule?
Its survivor count is 0 of 6.

What does the source list for `N#CSCCN1C(=O)C2C3CCC(O3)C2C1=O` (stereo not drawn)?
survivor count (dose: 25.0 mg/kg/injection, schedule: Q04DX002 (ip), vehicle: saline with Tween-80): 1 of 3; survivor count [4]: 0 of 3; survivor count (dose: 200.0 mg/kg/injection, schedule: Q04DX002 (ip), vehicle: saline with Tween-80): 0 of 3; survivor count (dose: 400.0 mg/kg/injection, schedule: Q04DX002 (ip), vehicle: saline with Tween-80): 0 of 3

`CC1CN1P(=O)(N1CC1C)N1CC1C` (stereo not drawn) was tested. Which T/C (dose: 8.8 mg/kg/injection, schedule: Q01DX009 (ip), vehicle: saline) did it give?
The T/C was 126 % of control.

What about the T/C (dose: 20.0 mg/kg/injection, schedule: Q01DX009 (ip), vehicle: saline) of the same molecule?
The T/C was 134 % of control.

What about the T/C (dose: 29.0 mg/kg/injection, schedule: Q01DX009 (ip), vehicle: saline, evaluated on day 30) of the same molecule?
Its T/C is 130 % of control.

And the T/C (dose: 29.0 mg/kg/injection, schedule: Q01DX009 (ip), vehicle: saline, run until all animals had died)?
Its T/C is 138 % of control.

What about the T/C (dose: 44.0 mg/kg/injection, schedule: Q01DX001 (ip), vehicle: saline) of the same molecule?
The T/C was 128 % of control.

And the T/C [5]?
Its T/C is 130 % of control.

And the survivor count [5]?
Its survivor count is 6 of 6.

And the T/C (dose: 75.0 mg/kg/injection, schedule: Q01DX001 (ip), vehicle: saline)?
Its T/C is 139 % of control.

And the T/C [1]?
The T/C was 143 % of control.

And the survivor count [1]?
Its survivor count is 6 of 6.

What about the survivor count (dose: 100.0 mg/kg/injection, schedule: Q01DX009 (ip), vehicle: saline) of the same molecule?
The survivor count was 5 of 6.

What about the survivor count (dose: 150.0 mg/kg/injection, schedule: Q01DX001 (ip), vehicle: saline) of the same molecule?
Its survivor count is 5 of 6.

And the survivor count (dose: 150.0 mg/kg/injection, schedule: Q01DX009 (ip), vehicle: saline)?
Its survivor count is 5 of 6.

And the survivor count [2]?
Its survivor count is 0 of 4.

What about the survivor count (dose: 225.0 mg/kg/injection, schedule: Q01DX009 (ip), vehicle: saline) of the same molecule?
The survivor count was 5 of 6.

What about the survivor count (dose: 300.0 mg/kg/injection, schedule: Q01DX001 (ip), vehicle: saline) of the same molecule?
Its survivor count is 3 of 4.

And the survivor count [3]?
Its survivor count is 1 of 4.
